The list shows a part of the results.
compound: c1cn2cc(-c3ccc4cn[nH]c4c3)nc(Nc3ccc(N4CCOCC4)cc3)c2n1 [entospletinib]; experiment: log2 fold change, soluble protein after heating vs DMSO (PISA); higher = thermal stabilisation; K562 cells, 10 uM, 30 min; active = over 0.2 and 3.5 SD of the protein, either way, in both replicates (recomputed)
How it was run: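 Soluble protein was defined as the supernatant after 21,000xg for 90 min. It came from K562 cells at 2×10^6 cells/mL given 10 μM compound for 30 min, heated in aliquots for 3 min across 48°C-58°C, pooled, and extracted in PBS with 0.5% NP-40 at 4°C, and was quantified by TMTpro 16plex LC-MS/MS with equalised channel sums. Thermal stability against control samples, from duplicates, is reported as log2 fold change.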

Amino acid sequences for entries named in this document (tags omitted). A change or cut given only in a name is not applied to a line headed by its entry.
UniProt P60604: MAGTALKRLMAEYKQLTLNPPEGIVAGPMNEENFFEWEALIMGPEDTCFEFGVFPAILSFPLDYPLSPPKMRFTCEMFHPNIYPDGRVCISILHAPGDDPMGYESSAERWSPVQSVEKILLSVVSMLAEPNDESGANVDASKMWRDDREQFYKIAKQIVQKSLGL
UniProt Q9C0C9: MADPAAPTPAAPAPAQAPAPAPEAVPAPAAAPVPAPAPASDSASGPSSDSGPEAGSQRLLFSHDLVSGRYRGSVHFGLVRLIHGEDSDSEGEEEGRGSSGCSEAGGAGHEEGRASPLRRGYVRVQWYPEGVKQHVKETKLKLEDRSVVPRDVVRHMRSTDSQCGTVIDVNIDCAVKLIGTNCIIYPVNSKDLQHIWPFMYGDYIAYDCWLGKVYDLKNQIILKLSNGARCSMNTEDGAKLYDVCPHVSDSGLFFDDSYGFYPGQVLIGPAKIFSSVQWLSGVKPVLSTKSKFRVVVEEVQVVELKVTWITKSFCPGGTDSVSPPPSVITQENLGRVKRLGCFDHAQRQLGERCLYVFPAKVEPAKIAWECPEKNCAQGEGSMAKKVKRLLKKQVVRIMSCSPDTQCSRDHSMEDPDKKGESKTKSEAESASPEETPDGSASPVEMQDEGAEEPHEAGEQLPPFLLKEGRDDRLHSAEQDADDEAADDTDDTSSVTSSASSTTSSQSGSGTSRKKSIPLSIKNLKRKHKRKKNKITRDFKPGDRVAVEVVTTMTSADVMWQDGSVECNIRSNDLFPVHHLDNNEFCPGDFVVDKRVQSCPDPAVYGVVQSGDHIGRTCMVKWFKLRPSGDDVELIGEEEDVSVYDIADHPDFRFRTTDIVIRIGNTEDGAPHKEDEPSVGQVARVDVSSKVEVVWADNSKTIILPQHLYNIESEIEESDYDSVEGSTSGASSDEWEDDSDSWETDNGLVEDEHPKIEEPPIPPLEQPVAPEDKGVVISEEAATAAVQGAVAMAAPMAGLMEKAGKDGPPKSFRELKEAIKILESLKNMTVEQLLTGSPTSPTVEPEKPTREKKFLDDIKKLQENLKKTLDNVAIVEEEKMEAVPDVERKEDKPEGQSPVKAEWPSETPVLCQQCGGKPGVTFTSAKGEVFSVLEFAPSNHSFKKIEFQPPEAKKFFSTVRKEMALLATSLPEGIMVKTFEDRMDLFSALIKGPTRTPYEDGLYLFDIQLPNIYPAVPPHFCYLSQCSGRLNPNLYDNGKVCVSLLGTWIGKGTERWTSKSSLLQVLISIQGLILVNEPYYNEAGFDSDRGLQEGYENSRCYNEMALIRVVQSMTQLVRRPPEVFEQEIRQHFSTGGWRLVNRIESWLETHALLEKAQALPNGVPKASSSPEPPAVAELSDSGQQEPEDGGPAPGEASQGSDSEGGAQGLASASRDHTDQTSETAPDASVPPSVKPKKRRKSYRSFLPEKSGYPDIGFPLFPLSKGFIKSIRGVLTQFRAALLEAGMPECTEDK
UniProt Q15819: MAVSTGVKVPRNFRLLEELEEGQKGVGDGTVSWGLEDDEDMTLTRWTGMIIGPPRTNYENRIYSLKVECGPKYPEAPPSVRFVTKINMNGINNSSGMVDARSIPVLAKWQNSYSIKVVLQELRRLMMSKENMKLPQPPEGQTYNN
UniProt P61086: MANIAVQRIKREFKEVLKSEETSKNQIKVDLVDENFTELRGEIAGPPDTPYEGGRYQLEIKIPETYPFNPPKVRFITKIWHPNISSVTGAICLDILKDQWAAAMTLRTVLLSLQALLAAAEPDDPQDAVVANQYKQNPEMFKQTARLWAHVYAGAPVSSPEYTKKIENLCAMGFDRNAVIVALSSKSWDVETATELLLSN
UniProt Q16762: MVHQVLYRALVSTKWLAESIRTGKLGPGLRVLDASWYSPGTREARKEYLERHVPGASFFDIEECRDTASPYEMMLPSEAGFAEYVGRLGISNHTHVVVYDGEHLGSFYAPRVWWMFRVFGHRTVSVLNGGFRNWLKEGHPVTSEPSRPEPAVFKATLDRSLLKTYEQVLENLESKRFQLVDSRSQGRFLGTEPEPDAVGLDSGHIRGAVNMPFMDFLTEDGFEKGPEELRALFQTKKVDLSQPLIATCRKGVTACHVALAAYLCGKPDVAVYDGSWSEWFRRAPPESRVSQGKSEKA
UniProt Q9NNW7, whole entry, looked up: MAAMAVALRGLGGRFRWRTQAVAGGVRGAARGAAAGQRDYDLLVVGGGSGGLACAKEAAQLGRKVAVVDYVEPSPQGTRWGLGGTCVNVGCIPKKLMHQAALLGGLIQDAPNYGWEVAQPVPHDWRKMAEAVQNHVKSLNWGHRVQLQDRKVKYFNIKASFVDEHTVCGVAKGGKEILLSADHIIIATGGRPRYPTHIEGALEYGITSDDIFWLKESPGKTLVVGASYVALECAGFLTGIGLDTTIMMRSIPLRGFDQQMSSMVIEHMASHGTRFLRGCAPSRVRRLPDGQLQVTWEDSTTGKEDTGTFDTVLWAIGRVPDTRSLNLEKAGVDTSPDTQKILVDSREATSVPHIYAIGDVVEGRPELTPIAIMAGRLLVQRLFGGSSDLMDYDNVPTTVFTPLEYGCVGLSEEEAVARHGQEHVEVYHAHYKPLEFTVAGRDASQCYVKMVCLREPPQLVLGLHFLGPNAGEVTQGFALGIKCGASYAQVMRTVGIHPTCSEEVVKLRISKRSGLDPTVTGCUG
UniProt Q9GZX9: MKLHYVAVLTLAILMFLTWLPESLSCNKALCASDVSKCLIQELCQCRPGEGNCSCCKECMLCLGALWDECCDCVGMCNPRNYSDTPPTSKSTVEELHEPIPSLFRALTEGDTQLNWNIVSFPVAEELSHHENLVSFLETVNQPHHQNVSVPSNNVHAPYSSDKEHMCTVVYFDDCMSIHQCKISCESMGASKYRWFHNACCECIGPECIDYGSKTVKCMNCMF
UniProt Q5T6F2: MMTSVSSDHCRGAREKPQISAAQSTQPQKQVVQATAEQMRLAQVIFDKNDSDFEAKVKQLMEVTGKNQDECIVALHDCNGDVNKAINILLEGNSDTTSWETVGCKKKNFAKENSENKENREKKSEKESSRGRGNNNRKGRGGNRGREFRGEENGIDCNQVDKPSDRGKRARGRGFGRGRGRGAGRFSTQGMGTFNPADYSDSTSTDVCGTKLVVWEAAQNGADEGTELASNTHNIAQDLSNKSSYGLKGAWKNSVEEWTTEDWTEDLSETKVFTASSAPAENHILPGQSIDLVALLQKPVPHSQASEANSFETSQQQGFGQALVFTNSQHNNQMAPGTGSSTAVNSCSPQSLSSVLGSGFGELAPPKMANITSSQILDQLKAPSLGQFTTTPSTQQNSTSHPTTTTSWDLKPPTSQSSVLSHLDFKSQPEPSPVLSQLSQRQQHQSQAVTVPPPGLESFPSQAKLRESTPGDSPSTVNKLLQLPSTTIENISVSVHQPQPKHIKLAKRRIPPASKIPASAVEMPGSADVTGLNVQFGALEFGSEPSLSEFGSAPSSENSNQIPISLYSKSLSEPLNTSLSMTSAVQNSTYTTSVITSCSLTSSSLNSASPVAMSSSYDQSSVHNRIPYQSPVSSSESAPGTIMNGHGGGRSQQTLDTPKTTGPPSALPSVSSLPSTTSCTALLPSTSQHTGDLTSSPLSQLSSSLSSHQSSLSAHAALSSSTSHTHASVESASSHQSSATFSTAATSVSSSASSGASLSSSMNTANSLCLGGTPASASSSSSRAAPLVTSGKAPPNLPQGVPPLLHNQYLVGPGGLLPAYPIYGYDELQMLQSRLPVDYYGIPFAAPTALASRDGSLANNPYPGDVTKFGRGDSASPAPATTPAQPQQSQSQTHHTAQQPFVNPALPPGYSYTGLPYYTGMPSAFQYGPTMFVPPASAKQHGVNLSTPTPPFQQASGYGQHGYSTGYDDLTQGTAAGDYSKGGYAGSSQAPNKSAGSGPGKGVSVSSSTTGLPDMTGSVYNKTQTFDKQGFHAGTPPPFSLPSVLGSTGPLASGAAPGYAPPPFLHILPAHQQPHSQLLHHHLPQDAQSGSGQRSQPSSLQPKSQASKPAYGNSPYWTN
UniProt Q15631: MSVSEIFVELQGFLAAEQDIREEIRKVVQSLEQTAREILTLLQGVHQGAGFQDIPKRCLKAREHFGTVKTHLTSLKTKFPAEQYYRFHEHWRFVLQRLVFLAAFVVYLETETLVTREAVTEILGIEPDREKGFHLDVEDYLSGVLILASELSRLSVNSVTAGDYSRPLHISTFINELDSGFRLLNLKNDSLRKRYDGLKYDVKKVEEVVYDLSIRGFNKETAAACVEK
UniProt Q8NG68: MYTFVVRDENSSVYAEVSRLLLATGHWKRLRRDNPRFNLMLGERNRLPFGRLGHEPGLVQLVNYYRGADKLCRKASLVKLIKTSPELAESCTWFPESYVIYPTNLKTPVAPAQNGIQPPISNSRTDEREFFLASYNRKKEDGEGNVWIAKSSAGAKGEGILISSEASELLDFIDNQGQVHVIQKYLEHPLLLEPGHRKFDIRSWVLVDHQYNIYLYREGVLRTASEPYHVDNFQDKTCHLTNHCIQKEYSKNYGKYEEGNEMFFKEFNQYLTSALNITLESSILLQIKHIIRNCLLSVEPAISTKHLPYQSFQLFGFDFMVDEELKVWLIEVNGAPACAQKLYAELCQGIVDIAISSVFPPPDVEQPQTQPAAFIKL
UniProt Q8N5M4: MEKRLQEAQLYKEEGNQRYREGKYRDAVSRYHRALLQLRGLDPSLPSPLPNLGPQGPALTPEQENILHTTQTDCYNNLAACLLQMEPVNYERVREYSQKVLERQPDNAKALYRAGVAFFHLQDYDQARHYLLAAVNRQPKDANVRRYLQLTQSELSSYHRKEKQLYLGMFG
UniProt P68036, whole entry, looked up: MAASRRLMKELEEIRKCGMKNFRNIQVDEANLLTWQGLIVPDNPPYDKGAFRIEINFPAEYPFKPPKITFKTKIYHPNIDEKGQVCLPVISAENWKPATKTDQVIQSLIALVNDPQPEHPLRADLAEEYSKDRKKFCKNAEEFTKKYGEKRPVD
UniProt Q6DKK2: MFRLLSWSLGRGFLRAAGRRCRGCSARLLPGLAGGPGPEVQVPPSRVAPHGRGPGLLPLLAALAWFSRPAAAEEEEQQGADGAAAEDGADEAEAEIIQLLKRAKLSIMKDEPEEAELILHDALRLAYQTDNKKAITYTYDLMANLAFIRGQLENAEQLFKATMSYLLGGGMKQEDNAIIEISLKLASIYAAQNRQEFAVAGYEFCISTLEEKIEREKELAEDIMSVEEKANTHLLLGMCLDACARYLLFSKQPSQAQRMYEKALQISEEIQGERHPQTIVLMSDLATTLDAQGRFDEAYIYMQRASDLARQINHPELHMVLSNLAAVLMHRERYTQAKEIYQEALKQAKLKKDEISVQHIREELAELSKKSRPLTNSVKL
UniProt P68371, whole entry, looked up: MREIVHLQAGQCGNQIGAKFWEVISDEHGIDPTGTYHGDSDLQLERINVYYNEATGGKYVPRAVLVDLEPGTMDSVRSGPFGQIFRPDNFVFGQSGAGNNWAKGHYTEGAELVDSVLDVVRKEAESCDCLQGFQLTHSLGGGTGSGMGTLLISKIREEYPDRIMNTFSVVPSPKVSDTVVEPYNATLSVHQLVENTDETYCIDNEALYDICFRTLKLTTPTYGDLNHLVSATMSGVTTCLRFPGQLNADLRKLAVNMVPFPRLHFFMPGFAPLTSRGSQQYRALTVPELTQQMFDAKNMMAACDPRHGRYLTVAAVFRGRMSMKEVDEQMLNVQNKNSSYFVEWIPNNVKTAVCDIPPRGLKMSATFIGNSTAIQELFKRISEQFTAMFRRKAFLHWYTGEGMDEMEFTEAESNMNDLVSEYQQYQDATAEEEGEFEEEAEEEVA
UniProt Q969M7: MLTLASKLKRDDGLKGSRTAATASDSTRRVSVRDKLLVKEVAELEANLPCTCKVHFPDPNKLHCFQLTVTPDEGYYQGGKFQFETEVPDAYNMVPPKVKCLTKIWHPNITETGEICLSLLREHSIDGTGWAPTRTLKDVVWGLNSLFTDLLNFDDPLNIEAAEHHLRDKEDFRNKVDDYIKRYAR
UniProt Q7Z6J9: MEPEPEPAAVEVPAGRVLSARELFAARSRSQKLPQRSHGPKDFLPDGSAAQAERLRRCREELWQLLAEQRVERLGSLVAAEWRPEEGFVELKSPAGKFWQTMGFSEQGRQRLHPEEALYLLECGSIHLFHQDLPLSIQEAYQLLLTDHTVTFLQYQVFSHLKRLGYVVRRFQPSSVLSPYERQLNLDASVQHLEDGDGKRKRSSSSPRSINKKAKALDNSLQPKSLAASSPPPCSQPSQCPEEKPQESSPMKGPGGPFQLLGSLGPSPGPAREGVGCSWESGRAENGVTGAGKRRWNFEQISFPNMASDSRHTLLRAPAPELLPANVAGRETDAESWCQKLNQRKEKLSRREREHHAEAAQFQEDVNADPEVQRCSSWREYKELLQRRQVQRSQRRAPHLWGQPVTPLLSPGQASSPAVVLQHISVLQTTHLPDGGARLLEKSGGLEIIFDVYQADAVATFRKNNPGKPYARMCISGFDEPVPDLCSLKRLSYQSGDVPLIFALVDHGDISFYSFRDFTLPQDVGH
UniProt P83876: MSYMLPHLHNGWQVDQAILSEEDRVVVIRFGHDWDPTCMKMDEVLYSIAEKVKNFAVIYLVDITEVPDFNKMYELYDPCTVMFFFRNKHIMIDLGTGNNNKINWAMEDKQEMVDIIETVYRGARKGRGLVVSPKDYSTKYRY

log2 fold change, inactive:
TYMS (UniProt P04818) 0.023
UBE2G2 (UniProt P60604) 0.053
UBE2O (UniProt Q9C0C9) -0.018
UBE2V2 (UniProt Q15819) 0.06
TTC27 (UniProt Q6P3X3) 0.175
UBE2K (UniProt P61086) -0.029
TST (UniProt Q16762) 0.294
TXNRD2 (UniProt Q9NNW7) 0.031
TWSG1 (UniProt Q9GZX9) -0.035
UBAP2 (UniProt Q5T6F2) -0.015
TTN isoform 12 (UniProt Q8WZ42) 0.114
TSN (UniProt Q15631) -0.023
TTL (UniProt Q8NG68) 0.117
TTC9C (UniProt Q8N5M4) 0.072
TUBB8B (UniProt A6NNZ2) -0.021
UBE2L3 isoform 3 (UniProt P68036) 0.018
TTC19 (UniProt Q6DKK2) -0.021
TUBB4B (UniProt P68371) 0.004
UBE2F isoform 2 (UniProt Q969M7) 0.037
TUFM (UniProt P49411) -0.008
TSEN54 (UniProt Q7Z6J9) -0.082
TXNL4A (UniProt P83876) 0.025
UBE2K (UniProt D6RDM7) 0.135

2 records drawn at random from those above, as already listed:
log2 fold change, inactive:
TUBB4B (UniProt P68371) 0.004
UBE2F isoform 2 (UniProt Q969M7) 0.037
